Here are results for 19 molecules from PubChem BioAssay AID256 (DTP/NCI, 2004).

The list is a part of this screen's results and no random one: it is rich in T/C values a quarter to a half above the control, in often repeated tests (any T/C) and in doses without a T/C. Further doses and runs are listed elsewhere. T/C is the treated group as % of the vehicle group. Some entries give survivors of the animals treated and no T/C: the source holds a T/C of zero for them, seemingly a mark for toxic or unscored doses. Some survivor counts are full or nearly so, which does not show that the dose was tolerated: the source hardly ever lists a survival T/C far under the control, and the zero likely stands for such cases as well. Survivors were counted at the toxicity check, usually on the fifth day, unless a day is given; later deaths do not show. Schedules are NCI's codes, read here as Q, the interval in days (D) or hours (H), X, the number of doses. For survival time, this PubChem deposit counts one and a half times the control or more as active, and values a quarter to a half above the control carry no call in these data; other NCI protocols may use other cut-offs. Some doses were run more than once; the results are listed from low to high. Some T/C values are followed by the survivors on the day toxicity was checked, most often the fifth; where none is given, no animal had died by that day.

This experiment deals with CD2F1 mice, L1210 leukemia ip, survival T/C. Briefly: NCI In Vivo Anticancer Drug Screen. Data for tumor model L1210 Leukemia (intraperitoneal) in CD2F1 (CDF1) mice. Particulars: higher T/C = longer survival. In a few lines: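 Activity against a transplanted murine tumor was judged by comparing the compound group with a vehicle group. The outcome in the treated animals was divided by that in the controls.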

The mark [1] stands for this setting: T/C endpoint: median survival time, dose: 6.0 mg/kg/injection, schedule: Q01DX009 (ip), vehicle: saline + Tween-80 + alcohol.
Setting [2] is: T/C endpoint: mean survival time, dose: 400.0 mg/kg/injection, schedule: Q04DX003 (ip), vehicle: saline with Tween-80.

For `CCCCCCCCCCCCCCCCCCOCC(CO)OC` (stereo unspecified), under “T/C endpoint: median survival time, dose: 400.0 mg/kg/injection, schedule: Q01DX009 (ip), vehicle: saline with Tween-80”, the survivor count is 2 of 6. As for `O=C(O)c1ccc(CC23CC4CC(CC(C4)C2)C3)cc1`, the survivor count (T/C endpoint: mean survival time, dose: 200.0 mg/kg/injection, schedule: Q01DX001 (ip), vehicle: saline with Tween-80) is reported as 6 of 6. `COC(=O)[C@@]12OC[C@]34[C@H]([C@@H](O)[C@@H]1O)[C@@]1(C)CC(=O)C(OC(=O)CC(=O)OC5=C(C)[C@@H]6C[C@H]7OC(=O)[C@H](OC(=O)/C=C(\C)C(C)C)[C@H]8[C@]9(C(=O)OC)OC[C@]78[C@H]([C@@H](O)[C@@H]9O)[C@@]6(C)CC5=O)=C(C)[C@@H]1C[C@H]3OC(=O)[C@H](OC(=O)/C=C(\C)C(C)C)[C@@H]24`: the T/C runs as follows: (T/C endpoint: median survival time, dose: 3.0 mg/kg/injection, schedule: Q01DX009 (ip), vehicle: saline + Tween-80 + alcohol) 128 and 136 % of control; under setting [1], 142 % of control [4 of 6 alive]. Also, under setting [1], the survivor count was 0 of 6. With `CC(=O)OC1(C)CC(C)(C)N=[N+]1[O-]` (stereo unspecified), the survivor count (T/C endpoint: mean survival time, dose: 400.0 mg/kg/injection, schedule: Q01DX009 (ip), vehicle: Klucel (hydroxypropylcellulose) (HPC)) is on record as 0 of 3. Consider `COc1ccc(C[C@H](N)C(=O)NC2C(CO)OC(n3cnc4c(N(C)C)ncnc43)C2O)cc1` (stereo partly specified), for which the survivor count (T/C endpoint: median survival time, dose: 200.0 mg/kg/injection, schedule: Q01DX005 (ip), vehicle: water) is on record as 6 of 6. Consider `Cc1cn(C2CC(O)C(CS[As](C)C)O2)c(=O)[nH]c1=O` (stereo unspecified), for which the survivor count (T/C endpoint: mean survival time, dose: 200.0 mg/kg/injection, schedule: Q01DX005 (ip), vehicle: distilled water + Tween-80) is given as 1 of 6.

For the molecule `Cc1cc(NCCCCCCNc2cc(C)[n+](C)c3c(Cl)cccc23)c2cccc(Cl)c2[n+]1C`, the survivor count (T/C endpoint: mean survival time, dose: 50.0 mg/kg/injection, schedule: Q01DX009 (ip), vehicle: Klucel (hydroxypropylcellulose) (HPC)) is 0 of 3; the survivor count (T/C endpoint: mean survival time, dose: 100.0 mg/kg/injection, schedule: Q01DX009 (ip), vehicle: Klucel (hydroxypropylcellulose) (HPC)) is given as 0 of 3; the survivor count (T/C endpoint: mean survival time, dose: 200.0 mg/kg/injection, schedule: Q01DX009 (ip), vehicle: Klucel (hydroxypropylcellulose) (HPC)) is given as 0 of 3.

As for `O=C(O)c1ccccc1C(=O)Nc1ccc(Cl)cc1`, the survivor count (T/C endpoint: mean survival time, dose: 400.0 mg/kg/injection, schedule: Q01DX009 (ip), vehicle: saline with Tween-80) was 3 of 6.

Consider `CN(C)CCCNC1CCC(NCCCN(C)C)CC1` (stereo unspecified), for which the survivor count runs as follows: (T/C endpoint: mean survival time, dose: 50.0 mg/kg/injection, schedule: Q01DX009 (ip), vehicle: saline) 5 of 6; (T/C endpoint: mean survival time, dose: 100.0 mg/kg/injection, schedule: Q01DX009 (ip), vehicle: saline) 1 of 6; (T/C endpoint: mean survival time, dose: 200.0 mg/kg/injection, schedule: Q04DX003 (ip), vehicle: saline) 6 of 6; (T/C endpoint: mean survival time, dose: 400.0 mg/kg/injection, schedule: Q04DX003 (ip), vehicle: saline) 0 of 6.

`NC(=O)NNc1ccc([N+](=O)[O-])cc1[N+](=O)[O-]`: the survivor count is, setting by setting: (T/C endpoint: mean survival time, dose: 100.0 mg/kg/injection, schedule: Q04DX003 (ip), vehicle: saline with Tween-80) 3 of 6; (T/C endpoint: mean survival time, dose: 200.0 mg/kg/injection, schedule: Q04DX003 (ip), vehicle: saline with Tween-80) 3 of 6; under setting [2], 1 of 6. In the case of `CC1=CC=CC(C)(C(Cl)Cl)C1=O` (stereo unspecified), the survivor count under setting [2] is given as 1 of 6. For the molecule `CN(C)CCCN(C)CCCN(C)C`, where the note is “T/C endpoint: mean survival time, dose: 300.0 mg/kg/injection, schedule: Q01DX001 (ip), vehicle: saline”, the survivor count was 2 of 6. On to `CCC(C(=O)O)c1ccccc1` (stereo unspecified), for which the survivor count (T/C endpoint: mean survival time, dose: 400.0 mg/kg/injection, schedule: Q04DX003 (ip), vehicle: saline sonified) is given as 3 of 6. As to `C[n+]1cccc(/C=C/C(=O)Nc2ccccc2)c1`, under setting [2], the survivor count is given as 0 of 6. With `CC(C)([CH2][Sn]([Cl])([Cl])[CH2]C(C)(C)c1ccccc1)c1ccccc1`, the survivor count is reported as 1 of 3 (T/C endpoint: mean survival time, dose: 25.0 mg/kg/injection, schedule: Q04DX002 (ip), vehicle: saline with Tween-80); 0 of 3 (T/C endpoint: mean survival time, dose: 50.0 mg/kg/injection, schedule: Q04DX002 (ip), vehicle: saline with Tween-80); 0 of 3 (T/C endpoint: mean survival time, dose: 100.0 mg/kg/injection, schedule: Q04DX002 (ip), vehicle: saline with Tween-80); 0 of 3 (T/C endpoint: mean survival time, dose: 200.0 mg/kg/injection, schedule: Q04DX002 (ip), vehicle: saline with Tween-80).

Regarding `CN(C)c1ccc(N=Nc2cccc(C(=O)[O-])c2)cc1.CN(C)c1ccc(N=Nc2cccc(C(=O)[O-])c2)cc1.NC1CCCCC1N.[Pt+4]`, the T/C runs as follows: (T/C endpoint: median survival time, dose: 12.5 mg/kg/injection, schedule: Q04DX003 (ip), vehicle: saline with Tween-80) 135 % of control; (T/C endpoint: median survival time, dose: 100.0 mg/kg/injection, schedule: Q04DX003 (ip), vehicle: saline with Tween-80) 132 % of control. The survivor count (T/C endpoint: median survival time, dose: 200.0 mg/kg/injection, schedule: Q04DX003 (ip), vehicle: saline with Tween-80) is reported as 5 of 6. Regarding `O=C1C=C(NNc2ccccc2)CCC1`, the survivor count (T/C endpoint: mean survival time, dose: 200.0 mg/kg/injection, schedule: Q01DX009 (ip), vehicle: saline with Tween-80) is given as 1 of 6. As for `c1ccc(CCC[P+](c2ccccc2)(c2ccccc2)c2ccccc2)cc1`, the survivor count is, setting by setting: (T/C endpoint: mean survival time, dose: 20.0 mg/kg/injection, schedule: Q01DX009 (ip), vehicle: saline with Tween-80) 0 of 6; (T/C endpoint: mean survival time, dose: 40.0 mg/kg/injection, schedule: Q01DX009 (ip), vehicle: saline with Tween-80) 0 of 6; (T/C endpoint: mean survival time, dose: 80.0 mg/kg/injection, schedule: Q01DX009 (ip), vehicle: saline with Tween-80) 0 of 6. Take `CCNc1ncc2ccccc2c1-c1ccc(NCCN(CCCl)CCCl)cc1`: the survivor count (T/C endpoint: mean survival time, dose: 200.0 mg/kg/injection, schedule: Q04DX003 (ip), vehicle: water) was 2 of 6 and the survivor count (T/C endpoint: mean survival time, dose: 400.0 mg/kg/injection, schedule: Q04DX003 (ip), vehicle: water) is reported as 0 of 6.
